Results are given in words; binding and its absence hold for the method and conditions named. In cells and extracts the contact can be indirect. Sequences can lack the tags named with a protein.

Protein sequences, listed by entry. Tags and fused reporters are not part of them. Residues count along the entry.
UniProt P19838, residues 1-433: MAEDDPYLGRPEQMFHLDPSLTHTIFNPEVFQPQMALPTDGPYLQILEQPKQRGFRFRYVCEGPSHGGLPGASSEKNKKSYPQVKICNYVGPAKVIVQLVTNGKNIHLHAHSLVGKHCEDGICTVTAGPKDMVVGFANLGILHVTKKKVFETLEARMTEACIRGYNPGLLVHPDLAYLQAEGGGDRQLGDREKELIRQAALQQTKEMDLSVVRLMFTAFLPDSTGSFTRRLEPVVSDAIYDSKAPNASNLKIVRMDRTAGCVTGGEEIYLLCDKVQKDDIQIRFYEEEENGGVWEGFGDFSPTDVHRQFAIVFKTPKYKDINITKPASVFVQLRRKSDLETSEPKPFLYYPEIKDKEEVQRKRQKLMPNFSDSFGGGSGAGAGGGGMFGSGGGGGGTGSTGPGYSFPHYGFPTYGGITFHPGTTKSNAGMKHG
UniProt Q04206: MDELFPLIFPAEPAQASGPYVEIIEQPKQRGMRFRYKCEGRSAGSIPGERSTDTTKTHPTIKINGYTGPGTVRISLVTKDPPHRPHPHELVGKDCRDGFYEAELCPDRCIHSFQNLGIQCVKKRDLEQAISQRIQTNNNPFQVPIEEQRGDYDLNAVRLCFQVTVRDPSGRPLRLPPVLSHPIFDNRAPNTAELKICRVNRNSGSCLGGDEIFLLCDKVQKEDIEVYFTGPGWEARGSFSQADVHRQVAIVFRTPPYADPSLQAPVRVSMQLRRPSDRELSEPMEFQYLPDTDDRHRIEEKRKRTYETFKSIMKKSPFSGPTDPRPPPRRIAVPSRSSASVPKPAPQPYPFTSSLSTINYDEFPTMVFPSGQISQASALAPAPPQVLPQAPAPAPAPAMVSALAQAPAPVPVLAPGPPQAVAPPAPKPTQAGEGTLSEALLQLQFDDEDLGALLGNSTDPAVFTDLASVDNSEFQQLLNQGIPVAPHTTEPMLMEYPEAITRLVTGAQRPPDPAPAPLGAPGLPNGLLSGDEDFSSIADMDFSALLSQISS

Experiment [1] addresses T1, GST-14-3-3η (UniProt Q04917).
T1 sequence: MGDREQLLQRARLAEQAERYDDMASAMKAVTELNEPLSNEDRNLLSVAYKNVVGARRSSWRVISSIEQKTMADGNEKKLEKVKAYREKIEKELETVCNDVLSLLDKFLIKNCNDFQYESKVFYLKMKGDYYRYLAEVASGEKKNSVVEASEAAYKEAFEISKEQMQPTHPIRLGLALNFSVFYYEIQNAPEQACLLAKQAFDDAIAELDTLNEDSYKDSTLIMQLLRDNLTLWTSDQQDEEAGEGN
Briefly: pull-down; purified GST fusion proteins incubated with cell extracts from different breast cancer cell lines for 45 min at 4°C; western blot; only the target purified. For orientation: Immunoblotting shows a protein as a band on a membrane.

For experiment [2], the target named is T1, GST-14-3-3η. Nature of the experiment: pull-down; purified GST fusion proteins incubated with lysates of TNFα-treated MCF10A cells for 45 min at 4°C; precipitates washed and analysed by western blot; only the target purified.

For p50 NF-κB (from UniProt P19838 1-433), the binding result with GST-14-3-3η [1] and with GST-14-3-3η [2] was “no binding” each time.
With p65-NF-κB (from UniProt Q04206 1-551), the binding result with GST-14-3-3η [1] and with GST-14-3-3η [2] was “no binding” in each case.

Values taken from publication PMC3364992.
